In publication PMC10611586, “Molecular basis for ubiquitin/Fubi cross-reactivity in USP16 and USP36” (Nature Chemical Biology, 2023):

Tests used:
[1] = molecular target: T1, USP36^81–461 (catalytic domain, longer construct) (human, UniProt Q9P275 81-461); assay: activity-based probe labelling (covalent conjugate), SDS-PAGE; purified protease 2.5 µM and probe 10 µM, 1 h at 37 °C; 20 mM Tris pH 8.0, 300 mM NaCl, 2 mM DTT, 5% glycerol; SDS-PAGE and Coomassie staining; settings: both partners purified
T1 construct: also called recombinant USP36; source: E. coli Rosetta2(DE3)pLacI, purified (HisTrap, 3C cleavage, cation exchange)
T1 sequence (looked up): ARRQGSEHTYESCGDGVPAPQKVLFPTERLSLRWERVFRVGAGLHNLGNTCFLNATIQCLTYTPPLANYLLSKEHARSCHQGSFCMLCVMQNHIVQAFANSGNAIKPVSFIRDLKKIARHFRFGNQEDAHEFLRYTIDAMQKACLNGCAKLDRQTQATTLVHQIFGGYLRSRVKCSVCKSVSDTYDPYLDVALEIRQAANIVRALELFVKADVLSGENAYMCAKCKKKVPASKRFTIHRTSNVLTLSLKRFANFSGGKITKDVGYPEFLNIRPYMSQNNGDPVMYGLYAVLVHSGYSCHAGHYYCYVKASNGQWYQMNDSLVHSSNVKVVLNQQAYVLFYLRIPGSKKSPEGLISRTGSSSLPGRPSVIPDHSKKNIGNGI

[2] = molecular target: T2, USP16^191–823 (catalytic domain) (human, UniProt Q9Y5T5 191-823); assay: as above; settings: both partners purified
T2 construct: USP16, human, catalytic domain, residues 191-823; also called recombinant USP16; source: E. coli Rosetta2(DE3)pLacI, purified (HisTrap, 3C cleavage, reverse Ni-NTA, anion exchange, SEC)
T2 sequence (looked up): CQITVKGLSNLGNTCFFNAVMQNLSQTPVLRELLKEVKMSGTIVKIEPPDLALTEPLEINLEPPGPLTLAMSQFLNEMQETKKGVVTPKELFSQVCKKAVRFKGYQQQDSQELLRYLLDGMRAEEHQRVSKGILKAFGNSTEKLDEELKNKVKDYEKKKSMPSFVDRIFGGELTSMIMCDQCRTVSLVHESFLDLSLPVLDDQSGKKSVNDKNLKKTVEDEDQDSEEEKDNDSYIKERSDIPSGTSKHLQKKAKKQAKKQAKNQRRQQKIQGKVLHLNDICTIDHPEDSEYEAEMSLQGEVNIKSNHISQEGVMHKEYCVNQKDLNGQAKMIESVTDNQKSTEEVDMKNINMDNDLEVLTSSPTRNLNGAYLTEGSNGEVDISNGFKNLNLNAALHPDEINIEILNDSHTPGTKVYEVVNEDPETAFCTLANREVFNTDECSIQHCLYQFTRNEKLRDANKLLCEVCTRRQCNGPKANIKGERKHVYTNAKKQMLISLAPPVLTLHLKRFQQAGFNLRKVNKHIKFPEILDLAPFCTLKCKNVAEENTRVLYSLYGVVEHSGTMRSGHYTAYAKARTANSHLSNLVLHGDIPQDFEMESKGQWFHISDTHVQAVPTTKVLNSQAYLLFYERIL

B1: Fubi-PA V40R P47Q (other, human, UniProt P62861 1-73, looked up)
chain: MQLFVRAQELHTFEVTGQETVAQIKAHVASLEGIAPEDQRVLLAGAQLEDEATLGQCGVEALTTLEVAGRMLG
modifications: C-terminal propargylamine (PA) warhead
notes: Fubi, human, residues 1-73; also called probe that restores the more polar Ile 44 environment (V40R and P47Q); source: E. coli Rosetta2(DE3)pLacI, intein fusion, MesNa thioester, reacted with propargylamine, purified
B1: binds [1]; binds [2].
